Experimental data: PubChem BioAssay AID1259308 (NCATS, 2017)
Assay: 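Genes whose loss raises luciferase production in HEK293 cells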 (primary screen). System: human HEK293 embryonic kidney cells stably expressing firefly luciferase (HEK-CMV-Luc2-Hygro). Knock-down reagent: single siRNA against human genes, 0.8 pmol siRNA per well. Time to read-out: 72 h. Measurement: 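Reporter luminescence and viable-cell signal on separate replicate plates, given as percent of non-targeting control and median/MAD z-scores, plus per-cell luciferase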. Scale: total luciferase, z-score: higher = more reporter protein produced. Rule for the call: 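An siRNA counts as active if its total luciferase robust z-score exceeds 3; genes with two or more such siRNAs out of three were retested with fresh siRNAs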. Calls: active = raised luciferase; inactive = no rise.
Here is a random part of about 59,000 reagents tested. About 1,510 of them (2.6%) count as active. 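Calls use total luciferase alone and ignore viability, so some active siRNAs may act by altering cell number.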 The numbers tell different reagents against one gene apart. Not all columns of the deposit are shown.

Depletion of SYAP1 #1 gave: total luciferase, z-score 0.34; inactive.
Against SYAP1 #2 the deposit lists total luciferase, z-score 0.241; inactive.
After knock-down of SYAP1 #3 the results were total luciferase, z-score -1.36; inactive.
Depletion of C9orf152 #1 gave: total luciferase, z-score 0.613; inactive.
C9orf152 #2 gave total luciferase, z-score -1.9; inactive.
C9orf152 #3 showed total luciferase, z-score 1.93; inactive.
Knock-down of CHMP2B #1 resulted in: total luciferase, z-score -0.677; inactive.
After knock-down of CHMP2B #2 the results were total luciferase, z-score 1.59; inactive.
Knock-down of CHMP2B #3 resulted in: total luciferase, z-score -0.0923; inactive.
Against IAH1 #1, the entry reads total luciferase, z-score -0.0903; inactive.
IAH1 #2 showed total luciferase, z-score -0.65; inactive.
Against IAH1 #3, the values are total luciferase, z-score 0.964; inactive.
For MED1 #1, the entry reads total luciferase, z-score -0.755; inactive.
Silencing of MED1 #2 came out at: total luciferase, z-score -0.173; inactive.
Depletion of MED1 #3 came out at: total luciferase, z-score -2.02; inactive.
After knock-down of KLHL36 #1, the record shows total luciferase, z-score -0.275; inactive.
KLHL36 #2 showed total luciferase, z-score 0.164; inactive.
After knock-down of KLHL36 #3, the screen gave total luciferase, z-score 0.188; inactive.
After knock-down of SIGLEC15 #1, the screen gave total luciferase, z-score -1.18; inactive.
For SIGLEC15 #2, the entry reads total luciferase, z-score -0.772; inactive.
With knock-down of SIGLEC15 #3, the screen gave total luciferase, z-score 1.31; inactive.
CTSA #1 gave total luciferase, z-score 0.0565; inactive.
Against CTSA #2, the entry reads total luciferase, z-score 0.174; inactive.
After knock-down of CTSA #3, the screen gave total luciferase, z-score -0.00994; inactive.
With knock-down of MAML3 #1 the results were total luciferase, z-score 0.545; inactive.
Silencing of MAML3 #2 gave: total luciferase, z-score 0.235; inactive.
After knock-down of MAML3 #3, the record shows total luciferase, z-score 0.51; inactive.
TPSG1 #1 gave total luciferase, z-score -1.95; inactive.
TPSG1 #2 scored total luciferase, z-score -1.95; inactive.
TPSG1 #3 gave total luciferase, z-score 0.109; inactive.
Depletion of SELENOT #1 resulted in: total luciferase, z-score 0.0515; inactive.
Knock-down of SELENOT #2 came out at: total luciferase, z-score -0.0781; inactive.
Against SELENOT #3 the deposit lists total luciferase, z-score 1.07; inactive.

In a second layout: results already given
Gene,reagent no.,"total luciferase, z-score",outcome
SIGLEC15,3,1.31,inactive
CTSA,1,0.0565,inactive
CTSA,2,0.174,inactive
CTSA,3,-0.00994,inactive
